Data reported in paper PMC3682574.
No constants are given. Whether binding was seen depends on the method and setting. Binding can be weak; no strength is given. Tags and fused reporters may be left off the sequences shown.

Chains of the proteins cited; added tags and fusions are not shown. Lines headed by an entry give the natural chain unless they say otherwise; changes in a name come on top.
UniProt Q96J02: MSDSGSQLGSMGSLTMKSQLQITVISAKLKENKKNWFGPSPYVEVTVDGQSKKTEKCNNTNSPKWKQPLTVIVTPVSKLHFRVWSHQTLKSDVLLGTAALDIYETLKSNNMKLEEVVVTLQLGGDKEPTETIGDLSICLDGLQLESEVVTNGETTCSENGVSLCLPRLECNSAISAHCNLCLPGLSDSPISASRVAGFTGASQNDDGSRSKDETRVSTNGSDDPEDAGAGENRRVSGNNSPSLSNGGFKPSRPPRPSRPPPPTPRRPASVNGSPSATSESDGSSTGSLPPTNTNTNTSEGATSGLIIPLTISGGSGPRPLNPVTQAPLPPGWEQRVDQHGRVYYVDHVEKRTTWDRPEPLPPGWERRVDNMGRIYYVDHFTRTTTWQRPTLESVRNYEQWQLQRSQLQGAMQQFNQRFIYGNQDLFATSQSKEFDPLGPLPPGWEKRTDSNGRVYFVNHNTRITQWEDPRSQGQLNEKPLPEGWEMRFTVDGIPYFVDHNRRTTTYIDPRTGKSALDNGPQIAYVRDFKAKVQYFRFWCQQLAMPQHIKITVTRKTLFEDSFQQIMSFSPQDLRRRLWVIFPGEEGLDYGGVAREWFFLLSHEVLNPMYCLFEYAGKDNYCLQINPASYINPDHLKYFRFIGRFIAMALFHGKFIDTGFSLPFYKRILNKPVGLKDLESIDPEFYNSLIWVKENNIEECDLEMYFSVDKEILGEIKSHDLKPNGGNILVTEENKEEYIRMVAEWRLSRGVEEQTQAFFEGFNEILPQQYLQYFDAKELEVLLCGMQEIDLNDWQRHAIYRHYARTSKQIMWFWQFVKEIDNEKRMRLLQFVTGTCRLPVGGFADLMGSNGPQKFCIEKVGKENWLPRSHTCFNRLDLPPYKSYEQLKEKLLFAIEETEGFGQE

Target: ITCH (on the domain array) (UniProt Q96J02)
Assay: peptide or protein array; solid phase SH3 and WW domain arrays (Panomics) hybridised with 10-20 μg/ml purified His-KLF11 TRD3; TRD3/bound array protein ratio 5:1; both purified

binding: binds
B1: His-KLF11 TRD3 (amino acids 273–351) (domain or fragment, UniProt O14901 273-351)
chain: TPLISVSVPAPPVLCQMIPVTGQSSMLPAFLKPPPQLSVGTVRPILAQAAPAPQPVFVGPAVPQGAVMLVLPQGALPPP
